This note sets out measurements from PMC7938106, “In vitro complex formation of human PYRIN domain-only protein 3 prevented by self-oligomerization of ASC PYD domain” (Saudi Journal of Biological Sciences, 2021).

Amino acid sequences for entries named in this document (tags omitted). Residues count along the entry.
UniProt Q9ULZ3, residues 1-96: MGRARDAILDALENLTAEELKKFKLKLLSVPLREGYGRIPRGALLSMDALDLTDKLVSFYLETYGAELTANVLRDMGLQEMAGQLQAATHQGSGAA

Assay [1] concerns the target ASC PYD domain, amino acids 1-96 (human) (UniProt Q9ULZ3). Briefly: native gel or EMSA; native PAGE, 8-25% acrylamide gradient gels, Coomassie stain; purified POP3 PYD (1-83) and ASC PYD (1-96); both purified. (In EMSA bound probe runs differently from free probe, usually more slowly.)
Assay [2] shares this target. The assay is described as follows: SEC; POP3 PYD (1-83) and ASC PYD (1-96) mixed at a molar ratio of about 1:1, pre-incubated 60 min at 4 °C; Superdex 200 HR 10/30 in 20 mM Tris-HCl pH 8.0, 150 mM NaCl; both purified. A general note: Size exclusion chromatography separates by hydrodynamic size, large species first.

No constants are given. Whether binding was seen depends on the method and setting.

B1: PYD domain of PYRIN Domain-Only Protein 3 (POP3), amino acids 1-83 (domain or fragment, human, UniProt W6CW81 1-83, looked up)
chain: MESKYKEILLLTSLDNITDEELDRFKCFLPDEFNIATGKLHTLNSTSSQLDLKRWHGVCSEEDRIFQKLNYMLVAKCLREEQE
notes: PYRIN domain-only protein 3 (POP3), human, PYD domain, residues 1-83 of the 113-residue protein; The vector probably adds linker residues before the His6; also called POP3 PYD (1-83 aa); POP3PYD; not shown: His6, C-terminal, kept
B1: the binding entry in assay [1] and in assay [2] was “no binding” throughout.
